Measured values published in patent US5804576A, “Derivatives of 5-androsten-17-ones and 5-androstan-17-ones” (Research Corporation Technologies, Inc., priority 1986, dated 1998).
“And” between values parts separate entries of the source, which are not always exact repeats. Identical values can stand only once. At least one read-out could not be matched to a standard name with certainty.

Chains of the proteins cited; added tags and fusions are not shown. Residues count along the entry.
UniProt F1MMK2, 101-575: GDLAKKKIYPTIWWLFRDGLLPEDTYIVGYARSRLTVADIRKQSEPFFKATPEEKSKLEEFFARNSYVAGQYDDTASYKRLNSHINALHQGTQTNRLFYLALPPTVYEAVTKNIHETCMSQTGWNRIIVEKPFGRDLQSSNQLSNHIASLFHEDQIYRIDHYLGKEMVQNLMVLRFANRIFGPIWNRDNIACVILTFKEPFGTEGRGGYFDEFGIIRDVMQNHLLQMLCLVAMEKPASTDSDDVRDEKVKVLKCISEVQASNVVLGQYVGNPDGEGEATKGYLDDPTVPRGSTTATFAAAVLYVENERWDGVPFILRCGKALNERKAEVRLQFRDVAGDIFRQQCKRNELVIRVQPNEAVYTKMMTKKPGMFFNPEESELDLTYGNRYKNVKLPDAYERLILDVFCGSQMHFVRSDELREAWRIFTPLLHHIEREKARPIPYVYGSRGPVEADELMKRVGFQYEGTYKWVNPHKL
UniProt F1MMK2, 31-70: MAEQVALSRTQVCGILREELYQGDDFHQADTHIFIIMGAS

Target: T1, purified bovine adrenal G6PDH (Bos taurus, UniProt F1MMK2)
T1 construct: full-length, wild type, no tag
Assay: Inhibition of purified bovine adrenal G6PDH
Format: biochemical
Excerpt: The compounds listed below are screened as inhibitors of purified bovine adrenal G6PDH activity as one predictor of cancer preventive action. The assay for testing the inhibition of purified bovine adrenal G6PDH is according to the procedure by Oertel, G. W. and Rebelein, I. in Biochem. Biophys. Acta, 184, 459-460 (1969). The results are given below in Table I:
Both of the above tests, i.e., the inhibition of mammalian glucose-6-phosphate dehydrogenase (G6PDH) and the inhibition of tumor promoter (TPA) stimulation of ^3 H-thymidine incorporation in mouse epidermis are recognized as indicators of cancer prophylactic activity. The following Table compares the efficacy of representative compounds of the present invention in these two tests with that of DHEA: […]

Question: C[C@H]1CC[C@@]2(C)C(=CC[C@@H]3[C@@H]2CC[C@]2(C)C(=O)[C@H](O)C[C@@H]32)C1 [Compound 19] was tested. Which “Percent Inhibition (G6PDH)” value (Conc. 1 μm) did it give?
Answer: Its value is 27%.

Question: What about the “Percent Inhibition (G6PDH)” value (Conc. 10 μm) of the same compound?
Answer: Its value is 67%.

Question: C[C@H]1CC[C@@]2(C)C(=CC[C@@H]3[C@@H]2CC[C@]2(C)C(=O)[C@H](F)C[C@@H]32)C1 [Compound 20] was tested. Which “Percent Inhibition (G6PDH)” value (Conc. 1 μm) did it give?
Answer: The value was 56%.

Question: What about the “Percent Inhibition (G6PDH)” value (Conc. 10 μm) of the same compound?
Answer: The value was 52%.

Question: Which “Percent Inhibition (G6PDH)” value (Conc. 1 μm) does the source give for C[C@H]1CC[C@@]2(C)C(=CC[C@@H]3[C@@H]2CC[C@]2(C)C(=O)[C@H](C)C[C@@H]32)C1 [Compound 21] here?
Answer: The value was 42% and 31% and 41%.

Question: And the “Percent Inhibition (G6PDH)” value (Conc. 10 μm)?
Answer: The value was 55%.

Question: Which “Percent Inhibition (G6PDH)” value (Conc. 1 μm) does the source give for C[C@H]1CC[C@@]2(C)C(=CC[C@@H]3[C@@H]2CC[C@]2(C)C(=O)[C@](C)(F)C[C@@H]32)C1 [Compound 22] here?
Answer: Its value is 63%.

Question: And the “Percent Inhibition (G6PDH)” value (Conc. 10 μm)?
Answer: The value was 71%.

Question: Which results are given for C[C@]12CC[C@H](O)CC1=CC[C@@H]1[C@@H]2CC[C@]2(C)C(=O)CC[C@@H]12 [DHEA, 3β-Hydroxy-5-androst-en-17-one, reference compound]?
Answer: Percent Inhibition (G6PDH) (Conc. 1 μm): 20% and 23% and 24% and 27%; Percent Inhibition (G6PDH) (Conc. 10 μm): 52% and 58% and 53%
